Laboratory results taken from the supplement of paper PMC12823440, “Inhibitors supercharge kinase turnover through native proteolytic circuits” (Nature, 2025).
Structures can show the parent of a compound that is named as a salt. The list shows a part of the results. The calls rarely recur for the same compound in another form.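 Kinases were expressed as nanoluciferase fusions in K562 cells and luminescence was read every 4 h between 2 and 18 h as percent of control, DMSO set to 100% and a positive control to 0%. A time point counts as decreased when the signal drops significantly (2 sigma). The hit call is the authors' own, does not follow from the count of time points alone, and its rule is not shown.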

The chains behind the UniProt entries cited, without tags or fusion partners. Where a name states a change or a piece, a line headed by the entry shows the natural chain unless it says otherwise.
UniProt Q15208: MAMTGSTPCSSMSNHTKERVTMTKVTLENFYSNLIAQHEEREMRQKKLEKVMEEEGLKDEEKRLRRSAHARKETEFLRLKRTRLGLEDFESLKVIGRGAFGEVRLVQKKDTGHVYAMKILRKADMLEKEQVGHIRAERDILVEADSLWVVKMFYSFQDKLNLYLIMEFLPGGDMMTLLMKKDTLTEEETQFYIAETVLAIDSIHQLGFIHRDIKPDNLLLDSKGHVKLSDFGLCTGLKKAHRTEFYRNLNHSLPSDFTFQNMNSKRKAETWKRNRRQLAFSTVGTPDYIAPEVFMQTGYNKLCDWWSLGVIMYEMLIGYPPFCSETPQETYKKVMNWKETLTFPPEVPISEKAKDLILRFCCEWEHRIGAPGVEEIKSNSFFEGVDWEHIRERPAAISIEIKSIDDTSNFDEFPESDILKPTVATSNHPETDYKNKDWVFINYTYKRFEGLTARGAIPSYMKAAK
UniProt P42680: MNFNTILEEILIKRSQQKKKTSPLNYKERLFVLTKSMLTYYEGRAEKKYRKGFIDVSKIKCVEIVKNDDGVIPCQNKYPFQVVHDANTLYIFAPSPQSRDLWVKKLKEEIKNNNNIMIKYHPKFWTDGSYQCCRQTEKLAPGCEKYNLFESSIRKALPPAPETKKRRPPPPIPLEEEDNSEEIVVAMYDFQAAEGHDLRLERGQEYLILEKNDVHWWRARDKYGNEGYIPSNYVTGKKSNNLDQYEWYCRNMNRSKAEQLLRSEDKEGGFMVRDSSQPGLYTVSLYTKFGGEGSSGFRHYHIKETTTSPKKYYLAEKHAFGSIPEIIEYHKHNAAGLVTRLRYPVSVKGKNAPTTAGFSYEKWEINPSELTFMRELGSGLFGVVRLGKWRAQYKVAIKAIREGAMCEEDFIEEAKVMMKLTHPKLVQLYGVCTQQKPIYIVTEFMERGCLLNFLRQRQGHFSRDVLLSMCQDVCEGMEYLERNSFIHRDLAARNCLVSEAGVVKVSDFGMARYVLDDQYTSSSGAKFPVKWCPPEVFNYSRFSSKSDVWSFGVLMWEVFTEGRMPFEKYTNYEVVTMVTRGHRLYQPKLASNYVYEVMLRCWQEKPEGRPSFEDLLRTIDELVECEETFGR
UniProt P29597: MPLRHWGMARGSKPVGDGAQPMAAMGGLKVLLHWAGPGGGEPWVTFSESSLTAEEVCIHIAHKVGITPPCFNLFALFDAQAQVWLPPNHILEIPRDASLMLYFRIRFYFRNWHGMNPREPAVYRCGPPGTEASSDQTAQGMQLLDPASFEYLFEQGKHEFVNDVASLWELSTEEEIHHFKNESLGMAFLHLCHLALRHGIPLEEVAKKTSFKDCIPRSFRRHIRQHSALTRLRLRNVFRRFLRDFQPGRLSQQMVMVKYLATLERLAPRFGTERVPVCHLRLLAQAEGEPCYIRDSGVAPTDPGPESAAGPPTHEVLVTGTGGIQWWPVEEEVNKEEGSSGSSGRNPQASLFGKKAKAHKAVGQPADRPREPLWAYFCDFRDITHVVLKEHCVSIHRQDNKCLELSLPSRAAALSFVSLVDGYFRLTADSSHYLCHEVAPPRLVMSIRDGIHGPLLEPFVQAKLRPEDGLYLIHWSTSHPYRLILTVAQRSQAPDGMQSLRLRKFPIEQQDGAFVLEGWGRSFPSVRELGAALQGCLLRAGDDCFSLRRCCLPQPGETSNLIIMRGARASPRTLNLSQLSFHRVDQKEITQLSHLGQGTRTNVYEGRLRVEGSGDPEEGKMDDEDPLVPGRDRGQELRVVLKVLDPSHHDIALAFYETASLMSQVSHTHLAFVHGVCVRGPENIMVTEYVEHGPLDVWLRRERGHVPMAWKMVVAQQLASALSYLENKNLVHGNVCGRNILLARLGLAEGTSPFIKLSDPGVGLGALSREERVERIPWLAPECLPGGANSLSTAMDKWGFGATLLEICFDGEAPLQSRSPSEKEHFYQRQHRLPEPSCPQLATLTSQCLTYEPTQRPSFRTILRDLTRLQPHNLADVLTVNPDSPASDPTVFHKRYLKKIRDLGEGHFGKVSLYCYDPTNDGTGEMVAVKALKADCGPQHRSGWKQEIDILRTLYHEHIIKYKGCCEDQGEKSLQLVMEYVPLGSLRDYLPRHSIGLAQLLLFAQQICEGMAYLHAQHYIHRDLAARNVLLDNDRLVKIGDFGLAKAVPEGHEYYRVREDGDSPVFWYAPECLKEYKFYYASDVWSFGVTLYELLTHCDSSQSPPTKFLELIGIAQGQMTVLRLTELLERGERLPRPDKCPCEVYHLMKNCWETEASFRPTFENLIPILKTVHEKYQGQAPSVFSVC
UniProt Q6PHR2: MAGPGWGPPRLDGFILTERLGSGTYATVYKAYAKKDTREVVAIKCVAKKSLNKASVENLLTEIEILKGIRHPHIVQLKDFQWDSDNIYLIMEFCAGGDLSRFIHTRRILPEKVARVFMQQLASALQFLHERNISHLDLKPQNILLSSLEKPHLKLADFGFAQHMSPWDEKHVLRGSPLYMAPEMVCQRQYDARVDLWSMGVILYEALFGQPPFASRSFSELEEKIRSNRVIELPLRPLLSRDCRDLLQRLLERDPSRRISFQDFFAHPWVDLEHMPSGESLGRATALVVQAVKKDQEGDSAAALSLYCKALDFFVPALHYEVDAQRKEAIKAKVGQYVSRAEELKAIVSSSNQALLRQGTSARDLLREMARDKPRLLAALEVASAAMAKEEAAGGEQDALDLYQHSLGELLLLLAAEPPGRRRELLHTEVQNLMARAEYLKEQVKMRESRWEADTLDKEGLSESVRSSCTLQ
UniProt P07947, whole entry, looked up: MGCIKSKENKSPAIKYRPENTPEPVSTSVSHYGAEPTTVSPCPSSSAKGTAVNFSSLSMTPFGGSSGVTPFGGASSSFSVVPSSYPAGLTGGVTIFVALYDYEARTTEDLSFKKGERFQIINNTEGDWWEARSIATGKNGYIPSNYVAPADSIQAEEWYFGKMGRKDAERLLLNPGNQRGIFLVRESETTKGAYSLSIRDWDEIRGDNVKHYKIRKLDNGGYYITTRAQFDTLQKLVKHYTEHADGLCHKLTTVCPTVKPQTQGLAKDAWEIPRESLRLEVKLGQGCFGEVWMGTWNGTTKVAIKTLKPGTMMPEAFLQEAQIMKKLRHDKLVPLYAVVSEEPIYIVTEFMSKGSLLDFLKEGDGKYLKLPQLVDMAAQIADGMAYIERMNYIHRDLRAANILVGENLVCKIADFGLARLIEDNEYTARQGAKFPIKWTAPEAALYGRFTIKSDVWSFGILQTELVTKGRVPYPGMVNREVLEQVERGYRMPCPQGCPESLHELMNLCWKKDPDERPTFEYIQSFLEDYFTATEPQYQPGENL
UniProt P43403: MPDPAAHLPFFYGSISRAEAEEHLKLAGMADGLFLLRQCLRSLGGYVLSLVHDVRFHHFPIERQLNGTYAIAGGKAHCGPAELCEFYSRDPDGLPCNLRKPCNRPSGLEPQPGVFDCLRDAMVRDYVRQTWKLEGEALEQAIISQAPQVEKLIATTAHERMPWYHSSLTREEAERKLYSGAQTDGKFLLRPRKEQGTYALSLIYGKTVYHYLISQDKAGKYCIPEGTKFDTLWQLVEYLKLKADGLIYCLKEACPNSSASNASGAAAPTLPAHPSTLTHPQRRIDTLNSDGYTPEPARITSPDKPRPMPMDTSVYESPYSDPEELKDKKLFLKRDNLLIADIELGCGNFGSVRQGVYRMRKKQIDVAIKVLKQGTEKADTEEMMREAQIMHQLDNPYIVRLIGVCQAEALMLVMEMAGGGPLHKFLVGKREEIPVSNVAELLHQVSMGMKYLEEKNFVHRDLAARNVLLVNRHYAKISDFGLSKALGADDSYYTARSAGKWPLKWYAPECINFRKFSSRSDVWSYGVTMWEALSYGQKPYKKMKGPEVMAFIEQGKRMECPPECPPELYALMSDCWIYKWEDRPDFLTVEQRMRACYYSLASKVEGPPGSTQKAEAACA
UniProt P00519, whole entry: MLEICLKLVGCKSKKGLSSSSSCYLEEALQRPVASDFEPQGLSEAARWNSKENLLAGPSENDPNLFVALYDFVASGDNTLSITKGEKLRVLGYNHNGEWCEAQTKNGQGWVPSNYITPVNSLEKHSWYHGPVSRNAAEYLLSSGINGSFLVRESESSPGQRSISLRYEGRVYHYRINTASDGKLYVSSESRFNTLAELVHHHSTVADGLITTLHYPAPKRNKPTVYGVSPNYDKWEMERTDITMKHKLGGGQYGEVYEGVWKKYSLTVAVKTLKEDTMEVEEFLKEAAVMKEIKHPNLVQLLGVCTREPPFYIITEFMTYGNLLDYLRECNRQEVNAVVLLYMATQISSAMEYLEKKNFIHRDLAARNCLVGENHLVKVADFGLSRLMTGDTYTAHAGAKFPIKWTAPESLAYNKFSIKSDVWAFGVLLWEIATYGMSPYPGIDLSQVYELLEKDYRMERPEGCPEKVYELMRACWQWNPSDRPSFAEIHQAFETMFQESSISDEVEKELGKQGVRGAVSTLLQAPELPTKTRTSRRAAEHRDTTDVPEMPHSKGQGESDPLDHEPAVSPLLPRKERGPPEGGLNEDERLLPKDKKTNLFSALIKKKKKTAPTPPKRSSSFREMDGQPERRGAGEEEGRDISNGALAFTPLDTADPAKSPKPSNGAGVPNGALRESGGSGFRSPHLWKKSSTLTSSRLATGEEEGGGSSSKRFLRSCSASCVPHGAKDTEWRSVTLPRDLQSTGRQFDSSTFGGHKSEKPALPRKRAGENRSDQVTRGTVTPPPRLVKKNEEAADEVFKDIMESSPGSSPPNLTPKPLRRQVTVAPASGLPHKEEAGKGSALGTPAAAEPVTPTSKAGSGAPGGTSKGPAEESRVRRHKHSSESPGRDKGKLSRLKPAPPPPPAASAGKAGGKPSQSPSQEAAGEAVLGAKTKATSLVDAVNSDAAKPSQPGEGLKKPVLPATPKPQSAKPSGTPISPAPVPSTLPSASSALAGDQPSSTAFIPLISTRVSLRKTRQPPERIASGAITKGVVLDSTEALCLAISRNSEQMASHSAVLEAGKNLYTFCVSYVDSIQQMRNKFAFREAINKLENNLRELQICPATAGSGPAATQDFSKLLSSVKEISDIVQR
UniProt P31749: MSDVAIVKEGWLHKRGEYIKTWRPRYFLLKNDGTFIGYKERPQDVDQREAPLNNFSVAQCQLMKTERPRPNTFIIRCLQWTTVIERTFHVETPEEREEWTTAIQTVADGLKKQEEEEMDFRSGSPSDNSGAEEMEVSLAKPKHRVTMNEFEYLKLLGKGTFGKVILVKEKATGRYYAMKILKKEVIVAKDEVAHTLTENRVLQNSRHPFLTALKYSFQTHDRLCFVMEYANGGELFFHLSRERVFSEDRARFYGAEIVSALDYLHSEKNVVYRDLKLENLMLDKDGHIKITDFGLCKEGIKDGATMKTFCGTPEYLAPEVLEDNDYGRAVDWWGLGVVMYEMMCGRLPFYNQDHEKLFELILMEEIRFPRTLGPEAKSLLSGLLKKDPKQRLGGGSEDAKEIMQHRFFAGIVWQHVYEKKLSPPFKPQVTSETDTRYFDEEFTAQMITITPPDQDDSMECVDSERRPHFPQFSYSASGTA

Tests used:
Conditions in all cases: K562; 2-18 h
[1] = molecular target: STK38 (UniProt Q15208); test: kinase-Nluc reporter destabilization hit call (1 = scored as downregulated) (binary); higher = compound decreases kinase abundance
[2] = molecular target: SYK (UniProt P43405); test: as above
[3] = molecular target: TEC (UniProt P42680); test: as above
[4] = molecular target: TYK2 (UniProt P29597); test: as above
[5] = molecular target: ULK3 (UniProt Q6PHR2); test: as above
[6] = molecular target: YES1 (UniProt P07947); test: as above
[7] = molecular target: ZAK (UniProt Q9NYL2); test: as above
[8] = molecular target: ZAP70 (UniProt P43403); test: as above
[9] = molecular target: ABL1 (UniProt P00519); test: number of time points (of 5) at which kinase-Nluc abundance scored as decreased, DMSO-normalised (count); higher = more persistent destabilization
[10] = molecular target: AKT1 (UniProt P31749); test: as above

O=c1c(O)c(-c2ccc(O)c(O)c2)oc2cc(O)c(O)c(O)c12 [Quercetagetin] (10 µM)
0: number of time points [9] | number of time points [10]
inactive: kinase-Nluc reporter destabilization hit call [1] 0 | kinase-Nluc reporter destabilization hit call [2] 0 | kinase-Nluc reporter destabilization hit call [3] 0 | kinase-Nluc reporter destabilization hit call [4] 0 | kinase-Nluc reporter destabilization hit call [5] 0 | kinase-Nluc reporter destabilization hit call [6] 0 | kinase-Nluc reporter destabilization hit call [7] 0 | kinase-Nluc reporter destabilization hit call [8] 0

O=C1Cc2ccccc2N1 [Oxindole] (10 µM)
0: number of time points [9] | number of time points [10]
inactive: kinase-Nluc reporter destabilization hit call [1] 0 | kinase-Nluc reporter destabilization hit call [2] 0 | kinase-Nluc reporter destabilization hit call [3] 0 | kinase-Nluc reporter destabilization hit call [4] 0 | kinase-Nluc reporter destabilization hit call [5] 0 | kinase-Nluc reporter destabilization hit call [6] 0 | kinase-Nluc reporter destabilization hit call [7] 0 | kinase-Nluc reporter destabilization hit call [8] 0

O=C1CCC(N2C(=O)c3cccc(OCCCCCOc4ccc(CC(=O)Nc5cc(C6CCC6)[nH]n5)cc4)c3C2=O)C(=O)N1 (stereo not given) [PROTAC CDK9 Degrader-1] (10 µM)
inactive: kinase-Nluc reporter destabilization hit call [1] 0 | kinase-Nluc reporter destabilization hit call [2] 0 | kinase-Nluc reporter destabilization hit call [3] 0 | kinase-Nluc reporter destabilization hit call [4] 0 | kinase-Nluc reporter destabilization hit call [5] 0 | kinase-Nluc reporter destabilization hit call [6] 0 | kinase-Nluc reporter destabilization hit call [7] 0 | kinase-Nluc reporter destabilization hit call [8] 0
0: number of time points [9] | number of time points [10]

O=C(Nc1ccc(Cl)cc1)C1CN(C(=O)c2cccc(-c3ccco3)c2)CC(F)(F)C1 (stereo not given) (2.5 µM)
0: number of time points [9] | number of time points [10]
inactive: kinase-Nluc reporter destabilization hit call [1] 0 | kinase-Nluc reporter destabilization hit call [2] 0 | kinase-Nluc reporter destabilization hit call [3] 0 | kinase-Nluc reporter destabilization hit call [4] 0 | kinase-Nluc reporter destabilization hit call [5] 0 | kinase-Nluc reporter destabilization hit call [6] 0 | kinase-Nluc reporter destabilization hit call [7] 0 | kinase-Nluc reporter destabilization hit call [8] 0

CN(C)c1ccc(/C=C2\C(=O)Nc3ccccc32)c2ccccc12 (10 µM)
0: number of time points [9] | number of time points [10]
inactive: kinase-Nluc reporter destabilization hit call [1] 0 | kinase-Nluc reporter destabilization hit call [2] 0 | kinase-Nluc reporter destabilization hit call [3] 0 | kinase-Nluc reporter destabilization hit call [4] 0 | kinase-Nluc reporter destabilization hit call [5] 0 | kinase-Nluc reporter destabilization hit call [6] 0 | kinase-Nluc reporter destabilization hit call [7] 0 | kinase-Nluc reporter destabilization hit call [8] 0

CN1CCC(Nc2nc(Nc3ccc(Oc4ccccc4)cc3)c3c(=O)[nH]cc(Br)c3n2)CC1 (2.5 µM)
inactive: kinase-Nluc reporter destabilization hit call [1] 0 | kinase-Nluc reporter destabilization hit call [2] 0 | kinase-Nluc reporter destabilization hit call [3] 0 | kinase-Nluc reporter destabilization hit call [4] 0 | kinase-Nluc reporter destabilization hit call [5] 0 | kinase-Nluc reporter destabilization hit call [6] 0 | kinase-Nluc reporter destabilization hit call [7] 0 | kinase-Nluc reporter destabilization hit call [8] 0
0: number of time points [9] | number of time points [10]

COc1c(O)cc(O)c2c(=O)cc(-c3ccccc3)oc12 [Wogonin] (10 µM)
inactive: kinase-Nluc reporter destabilization hit call [1] 0 | kinase-Nluc reporter destabilization hit call [2] 0 | kinase-Nluc reporter destabilization hit call [3] 0 | kinase-Nluc reporter destabilization hit call [4] 0 | kinase-Nluc reporter destabilization hit call [5] 0 | kinase-Nluc reporter destabilization hit call [6] 0 | kinase-Nluc reporter destabilization hit call [7] 0 | kinase-Nluc reporter destabilization hit call [8] 0
0: number of time points [9] | number of time points [10]

CN1CCN(c2ccc(-c3ccncc3-c3cc(F)c(O)c(F)c3)cc2)CC1 (10 µM)
inactive: kinase-Nluc reporter destabilization hit call [1] 0 | kinase-Nluc reporter destabilization hit call [2] 0 | kinase-Nluc reporter destabilization hit call [3] 0 | kinase-Nluc reporter destabilization hit call [4] 0 | kinase-Nluc reporter destabilization hit call [5] 0 | kinase-Nluc reporter destabilization hit call [6] 0 | kinase-Nluc reporter destabilization hit call [7] 0 | kinase-Nluc reporter destabilization hit call [8] 0
0: number of time points [9] | number of time points [10]

O=C(NCc1ccn[nH]1)c1cc([C@@H]2CCNC[C@H]2COc2ccc3c(c2)OCO3)ccc1F [GRK2-IN-1 (hydrochloride)] (10 µM)
inactive: kinase-Nluc reporter destabilization hit call [1] 0 | kinase-Nluc reporter destabilization hit call [2] 0 | kinase-Nluc reporter destabilization hit call [3] 0 | kinase-Nluc reporter destabilization hit call [4] 0 | kinase-Nluc reporter destabilization hit call [5] 0 | kinase-Nluc reporter destabilization hit call [6] 0 | kinase-Nluc reporter destabilization hit call [7] 0 | kinase-Nluc reporter destabilization hit call [8] 0
0: number of time points [9] | number of time points [10]

CC(=O)O[C@@H]1[C@@H](OC(C)=O)[C@@H](O)[C@H](Oc2c(-c3ccc(O)cc3)oc3cc(O)cc(O)c3c2=O)O[C@H]1C (10 µM)
0: number of time points [9] | number of time points [10]
inactive: kinase-Nluc reporter destabilization hit call [1] 0 | kinase-Nluc reporter destabilization hit call [2] 0 | kinase-Nluc reporter destabilization hit call [3] 0 | kinase-Nluc reporter destabilization hit call [4] 0 | kinase-Nluc reporter destabilization hit call [5] 0 | kinase-Nluc reporter destabilization hit call [6] 0 | kinase-Nluc reporter destabilization hit call [7] 0 | kinase-Nluc reporter destabilization hit call [8] 0

N#C/C(=C/c1ccc(O)c(O)c1)C(=O)N1CCc2ccccc21 [Tyrphostin AG 528] (10 µM)
inactive: kinase-Nluc reporter destabilization hit call [1] 0 | kinase-Nluc reporter destabilization hit call [2] 0 | kinase-Nluc reporter destabilization hit call [3] 0 | kinase-Nluc reporter destabilization hit call [4] 0 | kinase-Nluc reporter destabilization hit call [5] 0 | kinase-Nluc reporter destabilization hit call [6] 0 | kinase-Nluc reporter destabilization hit call [7] 0 | kinase-Nluc reporter destabilization hit call [8] 0
0: number of time points [9] | number of time points [10]

NC(=O)c1sc2c([N+](=O)[O-])cc(C(F)(F)F)cc2[n+]1[O-] [Cyclapolin 9] (10 µM)
0: number of time points [9] | number of time points [10]
inactive: kinase-Nluc reporter destabilization hit call [1] 0 | kinase-Nluc reporter destabilization hit call [2] 0 | kinase-Nluc reporter destabilization hit call [3] 0 | kinase-Nluc reporter destabilization hit call [4] 0 | kinase-Nluc reporter destabilization hit call [5] 0 | kinase-Nluc reporter destabilization hit call [6] 0 | kinase-Nluc reporter destabilization hit call [7] 0 | kinase-Nluc reporter destabilization hit call [8] 0

Three compounds from above, arranged by molecular weight, ascending.
O=C1Cc2ccccc2N1 [Oxindole] (10 µM)
0: number of time points [9] | number of time points [10]
inactive: kinase-Nluc reporter destabilization hit call [1] 0 | kinase-Nluc reporter destabilization hit call [2] 0 | kinase-Nluc reporter destabilization hit call [3] 0 | kinase-Nluc reporter destabilization hit call [4] 0 | kinase-Nluc reporter destabilization hit call [5] 0 | kinase-Nluc reporter destabilization hit call [6] 0 | kinase-Nluc reporter destabilization hit call [7] 0 | kinase-Nluc reporter destabilization hit call [8] 0

N#C/C(=C/c1ccc(O)c(O)c1)C(=O)N1CCc2ccccc21 [Tyrphostin AG 528] (10 µM)
inactive: kinase-Nluc reporter destabilization hit call [1] 0 | kinase-Nluc reporter destabilization hit call [2] 0 | kinase-Nluc reporter destabilization hit call [3] 0 | kinase-Nluc reporter destabilization hit call [4] 0 | kinase-Nluc reporter destabilization hit call [5] 0 | kinase-Nluc reporter destabilization hit call [6] 0 | kinase-Nluc reporter destabilization hit call [7] 0 | kinase-Nluc reporter destabilization hit call [8] 0
0: number of time points [9] | number of time points [10]

CN1CCN(c2ccc(-c3ccncc3-c3cc(F)c(O)c(F)c3)cc2)CC1 (10 µM)
inactive: kinase-Nluc reporter destabilization hit call [1] 0 | kinase-Nluc reporter destabilization hit call [2] 0 | kinase-Nluc reporter destabilization hit call [3] 0 | kinase-Nluc reporter destabilization hit call [4] 0 | kinase-Nluc reporter destabilization hit call [5] 0 | kinase-Nluc reporter destabilization hit call [6] 0 | kinase-Nluc reporter destabilization hit call [7] 0 | kinase-Nluc reporter destabilization hit call [8] 0
0: number of time points [9] | number of time points [10]

Following part.

CCC[C@H](C)Oc1nc(N)c2[nH]c(=O)n(CCCCCN3CCCCC3)c2n1 (10 µM)
0: number of time points [9] | number of time points [10]
inactive: kinase-Nluc reporter destabilization hit call [1] 0 | kinase-Nluc reporter destabilization hit call [2] 0 | kinase-Nluc reporter destabilization hit call [3] 0 | kinase-Nluc reporter destabilization hit call [4] 0 | kinase-Nluc reporter destabilization hit call [5] 0 | kinase-Nluc reporter destabilization hit call [6] 0 | kinase-Nluc reporter destabilization hit call [7] 0 | kinase-Nluc reporter destabilization hit call [8] 0

Cc1cnc(Cl)nc1-c1ccc(N(Cc2ccc(CNC(=O)C(F)F)cc2)C(=O)c2ccc(O)cc2O)cc1 (10 µM)
inactive: kinase-Nluc reporter destabilization hit call [1] 0 | kinase-Nluc reporter destabilization hit call [2] 0 | kinase-Nluc reporter destabilization hit call [3] 0 | kinase-Nluc reporter destabilization hit call [4] 0 | kinase-Nluc reporter destabilization hit call [5] 0 | kinase-Nluc reporter destabilization hit call [6] 0 | kinase-Nluc reporter destabilization hit call [7] 0 | kinase-Nluc reporter destabilization hit call [8] 0
0: number of time points [9] | number of time points [10]

Nc1nccc(Oc2ccc3c(C(=O)Nc4cccc(C(F)(F)F)c4)cccc3c2)n1 (10 µM)
0: number of time points [9] | number of time points [10]
inactive: kinase-Nluc reporter destabilization hit call [1] 0 | kinase-Nluc reporter destabilization hit call [2] 0 | kinase-Nluc reporter destabilization hit call [3] 0 | kinase-Nluc reporter destabilization hit call [4] 0 | kinase-Nluc reporter destabilization hit call [5] 0 | kinase-Nluc reporter destabilization hit call [6] 0 | kinase-Nluc reporter destabilization hit call [7] 0 | kinase-Nluc reporter destabilization hit call [8] 0
